# Test results published in the supplement of paper PMC3334620.
# The full ranking holds about 33,000 sequences; the median of “E-score (-0.5 to 0.5)” is about -8e-05, and the highest 2% start at about 0.23. The list shows a part of the results.
# Biological target: T1, Nrg2 (UniProt P38082)
# T1 sequence: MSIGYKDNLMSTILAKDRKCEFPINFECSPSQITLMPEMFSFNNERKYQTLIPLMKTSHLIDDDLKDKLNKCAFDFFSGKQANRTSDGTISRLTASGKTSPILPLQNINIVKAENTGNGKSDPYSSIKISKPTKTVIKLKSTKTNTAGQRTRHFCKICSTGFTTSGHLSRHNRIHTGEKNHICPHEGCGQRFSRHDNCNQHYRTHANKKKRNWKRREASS
# Assay: PBM E-score (8-mer binding enrichment) (E-score (-0.5 to 0.5)); higher = stronger / more preferred TF binding
# Details: protein concentration: 100 nM; construct: GST-full length
# Procedure: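 Universal 'all 10-mer' protein binding microarrays (Agilent AMADID 015681) probed with GST-tagged S. cerevisiae TFs (full-length or DBD) made by in vitro transcription/translation (PURExpress), about 100-200 nM. Bound TF was detected with fluorescent anti-GST. Each ungapped 8-mer (which stands for itself and its reverse complement) is scored by the PBM enrichment score (E-score), a modified Wilcoxon-Mann-Whitney statistic from -0.5 to +0.5, computed with the Universal PBM Analysis Suite. Scale: above 0.35 generally sequence-specific binding.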
row,Sequence,PBM E-score
1,GGCACGCA,-0.133
2,CACTGCTA,0.0106
3,ACGCGGGG,0.221
4,CGTCCGAG,0.0587
5,AACTAGTG,0.0803
6,AGACCTAG,-0.0422
7,AGTCGGGG,-0.179
8,CAATCCTA,-0.0876
9,ATAGGCGA,0.0499
10,GGCTGACC,-0.207
11,CGTTAGTA,0.0257
12,CGGTCTAC,-0.0553
13,AACAATCG,-0.0412
14,GATAACCA,0.175
15,TCGGAGAA,-0.0962
16,CCTTAAGC,-0.0539
17,ACTGGGGC,0.0524
18,CGACGAGC,0.0201
19,TCGAGCAA,0.183
20,AGGACATG,-0.0709
21,CGGACTTA,-0.245
22,GCAGGCGA,-0.0348
23,GACAGGTC,-0.146
24,TAAATAAA,0.086
25,CAGCGTTA,-0.0615

row,Sequence,PBM E-score
1,ACTAAGTA,0.0864
2,AGGTATGC,0.06
3,CCGGCCAC,-0.118
4,AAGGGCGC,0.126
5,CATCTACC,0.0527
6,AACACGGA,0.0856
7,ATAGTGCG,0.129
8,CAAAAATG,0.0482
9,AAAGGTTG,-0.174
10,CCTGACGC,-0.159
11,AGGACAGG,-0.0875
12,CTATTTGA,0.098
13,AACTAGGA,-0.0947
14,CCCACCCA,0.0597
15,TAATGTCA,0.0244
16,GAAGATAC,0.00975
17,AGTATTAT,0.00126
18,GCTAGGCC,-0.00927
19,AACTATGG,-0.144
20,AGAACTTC,-0.116
21,ACCAGAGA,0.118
22,CAGCTGGA,0.123
23,ACTGGACG,-0.0178
24,GTTAACGA,0.124
25,GGCGAATA,0.14

row,Sequence,PBM E-score
1,GCACTAAA,0.0452
2,GGAGTCAA,-0.184
3,AGATTGTC,-0.0618
4,TATGTCGA,0.158
5,CTCGTTAC,-0.0407
6,AAATACGT,0.0164
7,CTCTGCGA,0.0307
8,CTTGTCTA,0.0485
9,AACGAACG,0.0842
10,CCGACCCC,-0.283
11,AAGGCTCC,-0.322
12,AGACGCTC,-0.0581
13,AGATCCCA,0.0914
14,CTATCACC,-0.145
15,CTTTACAA,-0.0393
16,CTTCTTGA,-0.0331
17,CACCAATC,0.00066
18,CTGGCAGA,-0.066
19,ACGAGTCT,-0.122
20,CTACGTCA,-0.247
21,CACGTTAG,-0.178
22,GGCGTTAA,-0.301
23,ACAGCGGT,-0.0999
24,GTCAACTA,0.18
25,ATCACGGA,0.0273

row,Sequence,PBM E-score
1,ACAGAGCC,-0.0203
2,CCGTGTCG,-0.0952
3,CATCGAAA,0.0505
4,ACTCGATA,0.0203
5,AATGTCGG,-0.077
6,AATACGCG,0.142
7,CCCCTATA,-0.0914
8,TATCATCA,0.0106
9,GAATCAGC,0.0861
10,CATGTCAA,-0.0797
11,AGTTAACT,0.046
12,ATATTGGG,0.0515
13,CCAAAGCG,-0.124
14,AATGACCC,-0.0422
15,ACAGGGTG,0.0367
16,CCCTATTA,0.139
17,ATCTCAAC,0.158
18,AGAGCGCG,0.0781
19,CAGGCCAA,-0.0623
20,CAATGAAC,0.0934
21,ACACCACG,-0.185
22,ACCATGAG,0.00372
23,AGATCCTC,-0.14
24,CAATTTTC,0.00102
25,CTATCGTA,-0.0314

row,Sequence,PBM E-score
1,AGGGGGCA,-0.148
2,ATCTGTTA,0.1
3,AAGAAACT,0.0788
4,CGATCCCA,-0.08
5,AACATAAT,0.248
6,GTGGTATA,0.0994
7,CAAAATGA,0.0129
8,ATTATGGC,0.151
9,ACGAGCAA,-0.142
10,CCCCCTGA,-0.00244
11,CCTTATCC,-0.23
12,ACTGCAAT,0.103
13,GCCCAGGC,-0.3
14,CGCCGAAG,-0.164
15,ACCACTGG,-0.0408
16,CGACCACA,-0.133
17,AGCAGCAG,-0.0551
18,ACTCGCGA,0.273
19,GACGCGCC,-0.0615
20,ACAACGAA,0.119
21,ACAATTCC,0.0871
22,ATCGTTTA,0.0491
23,ATGCGCCC,0.137
24,AGCTGGAG,-0.133
25,ATGAAGGG,-0.00192

row,Sequence,PBM E-score
1,TGAATAAA,-0.124
2,GACAGTAA,0.0902
3,CGTTGGGA,-0.0651
4,GCCAGACC,0.0225
5,CTACGGAG,-0.189
6,CGGGATAG,0.0981
7,CAAGCTAC,-0.0943
8,AGGGCTTG,0.0851
9,AGTGCACA,-0.0126
10,AATATGGC,0.0624
11,AGCCTGTC,0.011
12,CAAAATGC,-0.182
13,GCTATGTA,-0.0588
14,CCATGAGA,0.0913
15,AGGGTTAT,0.112
16,ATCAGTGG,-0.0444
17,GTGGGATA,0.0749
18,ACATTGGG,-0.239
19,ACCAGGCA,0.0216
20,TACTTAGA,0.00114
21,AAATTGGG,0.0734
22,AGAGGGCC,-0.117
23,ATTCTACA,0.191
24,CTAACGCC,-0.0506
25,AGCTCTCC,-0.212

# A stretch from the list above, as a working copy:
row,Sequence,PBM E-score
4,TATGTCGA,0.158
5,CTCGTTAC,-0.0407
6,AAATACGT,0.0164
7,CTCTGCGA,0.0307
8,CTTGTCTA,0.0485
9,AACGAACG,0.0842
10,CCGACCCC,-0.283

# The list continues.

row,Sequence,PBM E-score
1,ACGAATCC,0.0708
2,TACAACCA,0.153
3,CTTTTATA,-0.242
4,CCTTACAG,-0.143
5,CCGCAGTC,-0.14
6,ACGGACGA,0.119
7,TTGATCAA,0.185
8,GTTGCGGA,-0.0637
9,CCAAGCCC,-0.0977
10,CAGTAACA,-0.11
11,AGCATCTG,0.0318
12,ATGTTTTA,-0.165
13,TAACCTGA,0.0287
14,AGAGAGCC,-0.114
15,ACGCGCTG,0.109
16,CCACGGTA,-0.177
17,TGGGGGAA,-0.436
18,GTCACCAA,-0.114
19,AATGGGGA,0.0109
20,GACACAAC,-0.039
21,GCATATGA,0.205
22,AAACAGTA,-0.0863

# 2 entries drawn at random from those above:
row,Sequence,PBM E-score
12,ATGTTTTA,-0.165
8,GTTGCGGA,-0.0637
